Experimental data taken from paper PMC4040925.
No constants are given. Whether binding was seen depends on the method and setting.

By UniProt entry, the sequences of proteins in these tests, tags left out.
UniProt P50552: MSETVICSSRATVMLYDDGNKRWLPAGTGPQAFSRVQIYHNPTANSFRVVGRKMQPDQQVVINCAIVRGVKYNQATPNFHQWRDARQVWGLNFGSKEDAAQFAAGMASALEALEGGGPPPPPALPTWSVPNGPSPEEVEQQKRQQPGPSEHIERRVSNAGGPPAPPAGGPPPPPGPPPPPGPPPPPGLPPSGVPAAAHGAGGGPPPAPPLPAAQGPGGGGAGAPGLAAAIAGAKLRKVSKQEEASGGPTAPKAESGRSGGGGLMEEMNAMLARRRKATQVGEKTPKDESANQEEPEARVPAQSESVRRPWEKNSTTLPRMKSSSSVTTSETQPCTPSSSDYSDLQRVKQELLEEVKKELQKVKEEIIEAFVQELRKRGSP

Molecular target: T1, p130CAS (UniProt P56945)
T1 sequence: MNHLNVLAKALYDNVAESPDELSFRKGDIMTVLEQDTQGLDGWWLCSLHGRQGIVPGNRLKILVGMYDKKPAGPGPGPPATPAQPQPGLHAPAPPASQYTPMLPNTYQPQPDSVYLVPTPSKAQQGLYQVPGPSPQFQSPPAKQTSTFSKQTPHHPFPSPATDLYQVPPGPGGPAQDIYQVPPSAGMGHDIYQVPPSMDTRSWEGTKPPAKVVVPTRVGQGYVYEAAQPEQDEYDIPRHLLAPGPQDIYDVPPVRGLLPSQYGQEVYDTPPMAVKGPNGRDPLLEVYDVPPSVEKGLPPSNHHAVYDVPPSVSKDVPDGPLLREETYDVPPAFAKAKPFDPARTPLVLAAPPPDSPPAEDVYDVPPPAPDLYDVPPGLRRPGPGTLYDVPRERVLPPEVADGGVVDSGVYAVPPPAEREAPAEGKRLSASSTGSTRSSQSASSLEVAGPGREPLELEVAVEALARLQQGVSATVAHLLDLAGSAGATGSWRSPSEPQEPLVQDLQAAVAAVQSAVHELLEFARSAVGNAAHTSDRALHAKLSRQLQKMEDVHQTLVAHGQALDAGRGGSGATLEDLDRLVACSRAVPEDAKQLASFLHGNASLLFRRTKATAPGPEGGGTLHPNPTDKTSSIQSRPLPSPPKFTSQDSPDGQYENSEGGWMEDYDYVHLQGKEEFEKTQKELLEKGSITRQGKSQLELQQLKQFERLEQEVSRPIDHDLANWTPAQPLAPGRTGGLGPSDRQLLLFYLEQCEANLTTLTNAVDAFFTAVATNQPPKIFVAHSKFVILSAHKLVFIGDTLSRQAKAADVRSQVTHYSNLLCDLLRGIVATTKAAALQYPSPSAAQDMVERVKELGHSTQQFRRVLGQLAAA
Test: fluorescence cross-correlation spectroscopy (FCCS); cytosol of live REF52 cells co-expressing one protein tagged with meGFP and the other with TDmKate2; 37°C; association score against the negative control meGFP + TDmKate2 (Fisher's exact test, p-value <0.0001); apparent Ka

binding: no binding
Substance: VASP (from UniProt P50552 1-380)
